Experimental data published in the supplement of paper PMC12819154, “High-throughput peptide-centric local stability assay extends protein–ligand identification to membrane proteins, tissues and bacteria” (Nature Structural & Molecular Biology, 2025).
The list shows a part of the results. Small differences around the control level are noise.

Chains of the proteins cited; added tags and fusions are not shown. Lines headed by an entry give the natural chain unless they say otherwise; changes in a name come on top.
UniProt Q62167: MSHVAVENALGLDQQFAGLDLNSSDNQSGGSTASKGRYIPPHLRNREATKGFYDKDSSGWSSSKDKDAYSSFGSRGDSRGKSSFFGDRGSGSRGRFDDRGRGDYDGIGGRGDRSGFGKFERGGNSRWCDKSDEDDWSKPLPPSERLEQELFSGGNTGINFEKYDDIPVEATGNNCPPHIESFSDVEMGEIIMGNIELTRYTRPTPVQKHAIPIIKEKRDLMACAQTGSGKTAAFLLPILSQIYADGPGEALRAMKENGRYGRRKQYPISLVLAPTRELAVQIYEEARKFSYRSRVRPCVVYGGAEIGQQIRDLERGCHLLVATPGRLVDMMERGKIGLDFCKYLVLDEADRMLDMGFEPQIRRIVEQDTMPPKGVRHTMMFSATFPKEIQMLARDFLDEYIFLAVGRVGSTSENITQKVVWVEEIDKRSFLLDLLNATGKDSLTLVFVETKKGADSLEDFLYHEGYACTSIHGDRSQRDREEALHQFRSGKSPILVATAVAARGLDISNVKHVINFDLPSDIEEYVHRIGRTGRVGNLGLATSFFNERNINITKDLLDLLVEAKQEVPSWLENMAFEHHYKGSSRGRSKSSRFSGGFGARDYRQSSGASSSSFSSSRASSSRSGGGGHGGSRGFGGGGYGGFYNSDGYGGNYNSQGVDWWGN
UniProt Q61165, whole entry: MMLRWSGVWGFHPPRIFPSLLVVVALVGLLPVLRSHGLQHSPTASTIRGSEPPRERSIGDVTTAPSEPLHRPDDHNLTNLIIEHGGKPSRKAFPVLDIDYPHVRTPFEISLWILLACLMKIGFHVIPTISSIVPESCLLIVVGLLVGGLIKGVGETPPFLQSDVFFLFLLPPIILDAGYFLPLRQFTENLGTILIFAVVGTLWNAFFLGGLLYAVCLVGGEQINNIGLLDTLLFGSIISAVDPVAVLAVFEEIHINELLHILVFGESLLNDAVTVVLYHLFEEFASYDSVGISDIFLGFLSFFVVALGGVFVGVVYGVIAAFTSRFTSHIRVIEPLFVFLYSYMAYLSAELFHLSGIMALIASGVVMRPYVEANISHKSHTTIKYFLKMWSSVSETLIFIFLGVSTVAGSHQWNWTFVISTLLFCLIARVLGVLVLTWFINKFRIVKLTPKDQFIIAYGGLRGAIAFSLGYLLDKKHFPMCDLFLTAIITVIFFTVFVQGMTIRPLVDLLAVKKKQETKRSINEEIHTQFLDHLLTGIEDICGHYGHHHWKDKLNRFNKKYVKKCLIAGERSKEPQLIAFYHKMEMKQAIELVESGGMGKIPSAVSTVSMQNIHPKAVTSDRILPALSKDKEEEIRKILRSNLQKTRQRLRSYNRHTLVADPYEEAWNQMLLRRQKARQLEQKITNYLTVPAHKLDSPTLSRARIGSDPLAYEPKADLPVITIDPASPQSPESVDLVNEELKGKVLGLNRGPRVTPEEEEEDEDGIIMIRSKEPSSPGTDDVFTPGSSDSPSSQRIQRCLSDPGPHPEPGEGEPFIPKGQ
UniProt Q61581: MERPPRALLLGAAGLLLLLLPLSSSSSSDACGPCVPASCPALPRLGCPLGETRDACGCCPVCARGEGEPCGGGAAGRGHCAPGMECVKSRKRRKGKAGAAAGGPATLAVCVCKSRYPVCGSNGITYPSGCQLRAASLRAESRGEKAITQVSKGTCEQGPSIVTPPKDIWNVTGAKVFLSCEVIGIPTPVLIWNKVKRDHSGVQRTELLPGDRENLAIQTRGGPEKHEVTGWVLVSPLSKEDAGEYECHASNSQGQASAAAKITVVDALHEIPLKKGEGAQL
UniProt Q69ZK6: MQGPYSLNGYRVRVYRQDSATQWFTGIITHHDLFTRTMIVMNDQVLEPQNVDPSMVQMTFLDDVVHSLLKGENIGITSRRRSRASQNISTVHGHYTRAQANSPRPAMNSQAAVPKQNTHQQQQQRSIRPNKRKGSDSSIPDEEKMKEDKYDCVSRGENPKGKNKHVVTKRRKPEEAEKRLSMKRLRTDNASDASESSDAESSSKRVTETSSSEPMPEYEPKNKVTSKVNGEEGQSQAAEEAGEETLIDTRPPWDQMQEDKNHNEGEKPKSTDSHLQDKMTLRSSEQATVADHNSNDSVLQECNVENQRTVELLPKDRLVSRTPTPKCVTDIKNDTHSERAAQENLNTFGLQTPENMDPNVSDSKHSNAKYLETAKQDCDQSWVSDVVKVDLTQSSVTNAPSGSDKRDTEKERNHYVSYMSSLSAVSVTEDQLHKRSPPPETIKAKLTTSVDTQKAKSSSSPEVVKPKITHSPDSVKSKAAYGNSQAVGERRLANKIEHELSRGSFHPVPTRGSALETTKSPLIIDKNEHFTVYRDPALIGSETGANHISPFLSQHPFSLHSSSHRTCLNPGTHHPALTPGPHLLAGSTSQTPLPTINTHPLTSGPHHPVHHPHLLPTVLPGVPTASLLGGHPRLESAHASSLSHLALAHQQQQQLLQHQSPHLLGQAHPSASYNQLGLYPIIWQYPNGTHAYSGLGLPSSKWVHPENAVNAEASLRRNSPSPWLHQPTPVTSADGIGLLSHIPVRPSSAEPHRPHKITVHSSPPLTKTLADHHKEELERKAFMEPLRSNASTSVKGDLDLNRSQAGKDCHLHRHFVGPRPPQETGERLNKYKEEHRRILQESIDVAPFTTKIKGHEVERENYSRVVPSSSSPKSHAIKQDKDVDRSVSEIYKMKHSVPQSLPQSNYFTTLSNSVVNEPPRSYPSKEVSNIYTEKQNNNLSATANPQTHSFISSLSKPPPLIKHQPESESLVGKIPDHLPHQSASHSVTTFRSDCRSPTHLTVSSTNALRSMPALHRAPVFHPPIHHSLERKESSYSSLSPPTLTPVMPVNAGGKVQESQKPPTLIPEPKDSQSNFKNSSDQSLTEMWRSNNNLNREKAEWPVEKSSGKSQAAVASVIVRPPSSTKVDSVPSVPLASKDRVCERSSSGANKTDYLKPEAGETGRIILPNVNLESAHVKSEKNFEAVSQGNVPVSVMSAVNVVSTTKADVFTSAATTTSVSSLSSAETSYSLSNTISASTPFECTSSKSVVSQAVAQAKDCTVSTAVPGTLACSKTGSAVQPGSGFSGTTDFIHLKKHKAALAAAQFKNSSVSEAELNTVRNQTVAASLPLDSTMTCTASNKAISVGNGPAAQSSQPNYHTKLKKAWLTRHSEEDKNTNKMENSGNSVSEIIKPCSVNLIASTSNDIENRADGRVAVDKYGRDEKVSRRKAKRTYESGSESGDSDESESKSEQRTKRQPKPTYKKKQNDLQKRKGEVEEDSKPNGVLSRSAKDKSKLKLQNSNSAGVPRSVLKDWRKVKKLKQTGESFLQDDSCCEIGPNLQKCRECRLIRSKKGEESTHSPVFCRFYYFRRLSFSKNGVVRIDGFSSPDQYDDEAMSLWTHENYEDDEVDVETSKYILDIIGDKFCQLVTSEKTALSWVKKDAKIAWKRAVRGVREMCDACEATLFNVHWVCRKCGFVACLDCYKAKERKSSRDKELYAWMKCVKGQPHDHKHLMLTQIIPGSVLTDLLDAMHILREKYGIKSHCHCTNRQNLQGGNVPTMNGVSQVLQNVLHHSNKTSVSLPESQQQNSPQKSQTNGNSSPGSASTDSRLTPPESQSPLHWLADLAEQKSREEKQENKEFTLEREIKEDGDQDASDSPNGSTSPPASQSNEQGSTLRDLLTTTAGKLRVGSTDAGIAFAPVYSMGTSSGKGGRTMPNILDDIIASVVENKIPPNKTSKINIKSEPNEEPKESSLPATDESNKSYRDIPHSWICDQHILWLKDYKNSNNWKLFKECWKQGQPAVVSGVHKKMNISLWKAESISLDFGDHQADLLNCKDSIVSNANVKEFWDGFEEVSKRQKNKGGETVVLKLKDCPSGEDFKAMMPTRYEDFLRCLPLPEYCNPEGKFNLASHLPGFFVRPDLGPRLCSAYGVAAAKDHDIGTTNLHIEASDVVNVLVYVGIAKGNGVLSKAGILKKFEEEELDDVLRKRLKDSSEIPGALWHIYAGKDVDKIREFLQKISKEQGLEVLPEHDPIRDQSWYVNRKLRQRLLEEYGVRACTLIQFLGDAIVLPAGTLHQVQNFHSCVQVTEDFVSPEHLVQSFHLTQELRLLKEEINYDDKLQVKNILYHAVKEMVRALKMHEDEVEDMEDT
UniProt Q61749, whole entry: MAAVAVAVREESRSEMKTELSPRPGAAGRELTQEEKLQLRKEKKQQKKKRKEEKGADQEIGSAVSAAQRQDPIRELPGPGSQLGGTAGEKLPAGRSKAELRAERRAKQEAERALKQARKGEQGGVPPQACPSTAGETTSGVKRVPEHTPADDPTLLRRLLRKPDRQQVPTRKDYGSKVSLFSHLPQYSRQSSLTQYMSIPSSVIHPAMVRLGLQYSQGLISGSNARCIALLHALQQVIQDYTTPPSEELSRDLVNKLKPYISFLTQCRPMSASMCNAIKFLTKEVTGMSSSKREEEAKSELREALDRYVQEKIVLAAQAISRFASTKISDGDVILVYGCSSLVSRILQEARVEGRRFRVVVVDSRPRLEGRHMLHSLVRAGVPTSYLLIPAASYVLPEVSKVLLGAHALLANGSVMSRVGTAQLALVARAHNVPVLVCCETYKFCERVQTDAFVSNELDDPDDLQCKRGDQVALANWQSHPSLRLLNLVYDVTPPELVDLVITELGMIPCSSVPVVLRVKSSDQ
UniProt Q63829, whole entry: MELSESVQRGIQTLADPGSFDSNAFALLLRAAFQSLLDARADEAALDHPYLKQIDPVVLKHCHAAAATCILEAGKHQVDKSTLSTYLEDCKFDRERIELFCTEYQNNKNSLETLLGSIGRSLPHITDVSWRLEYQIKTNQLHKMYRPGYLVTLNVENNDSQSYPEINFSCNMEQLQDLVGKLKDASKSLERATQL
UniProt Q62048, whole entry: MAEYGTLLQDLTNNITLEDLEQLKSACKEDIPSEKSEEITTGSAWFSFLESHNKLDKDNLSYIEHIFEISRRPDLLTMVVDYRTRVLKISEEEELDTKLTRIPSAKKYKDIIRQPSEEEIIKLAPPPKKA
UniProt Q69ZQ1: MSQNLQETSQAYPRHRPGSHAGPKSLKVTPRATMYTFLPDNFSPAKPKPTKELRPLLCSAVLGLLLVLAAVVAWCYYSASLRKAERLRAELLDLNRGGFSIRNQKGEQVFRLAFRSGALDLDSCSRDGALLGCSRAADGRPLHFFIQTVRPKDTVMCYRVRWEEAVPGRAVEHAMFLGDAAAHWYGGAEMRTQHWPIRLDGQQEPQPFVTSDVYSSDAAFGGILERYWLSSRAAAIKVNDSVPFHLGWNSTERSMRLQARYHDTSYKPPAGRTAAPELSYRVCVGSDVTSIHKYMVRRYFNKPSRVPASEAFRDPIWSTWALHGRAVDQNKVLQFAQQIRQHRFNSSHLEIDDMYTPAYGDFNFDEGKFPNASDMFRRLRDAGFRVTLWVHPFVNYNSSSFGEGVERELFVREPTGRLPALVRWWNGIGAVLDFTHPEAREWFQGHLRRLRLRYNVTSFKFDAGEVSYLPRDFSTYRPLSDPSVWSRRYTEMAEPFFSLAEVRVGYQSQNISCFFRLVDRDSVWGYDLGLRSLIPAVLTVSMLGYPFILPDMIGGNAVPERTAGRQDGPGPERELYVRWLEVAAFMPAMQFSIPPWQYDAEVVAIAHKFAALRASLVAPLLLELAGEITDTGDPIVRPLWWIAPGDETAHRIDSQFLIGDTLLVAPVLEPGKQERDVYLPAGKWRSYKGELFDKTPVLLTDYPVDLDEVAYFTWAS
UniProt Q60902: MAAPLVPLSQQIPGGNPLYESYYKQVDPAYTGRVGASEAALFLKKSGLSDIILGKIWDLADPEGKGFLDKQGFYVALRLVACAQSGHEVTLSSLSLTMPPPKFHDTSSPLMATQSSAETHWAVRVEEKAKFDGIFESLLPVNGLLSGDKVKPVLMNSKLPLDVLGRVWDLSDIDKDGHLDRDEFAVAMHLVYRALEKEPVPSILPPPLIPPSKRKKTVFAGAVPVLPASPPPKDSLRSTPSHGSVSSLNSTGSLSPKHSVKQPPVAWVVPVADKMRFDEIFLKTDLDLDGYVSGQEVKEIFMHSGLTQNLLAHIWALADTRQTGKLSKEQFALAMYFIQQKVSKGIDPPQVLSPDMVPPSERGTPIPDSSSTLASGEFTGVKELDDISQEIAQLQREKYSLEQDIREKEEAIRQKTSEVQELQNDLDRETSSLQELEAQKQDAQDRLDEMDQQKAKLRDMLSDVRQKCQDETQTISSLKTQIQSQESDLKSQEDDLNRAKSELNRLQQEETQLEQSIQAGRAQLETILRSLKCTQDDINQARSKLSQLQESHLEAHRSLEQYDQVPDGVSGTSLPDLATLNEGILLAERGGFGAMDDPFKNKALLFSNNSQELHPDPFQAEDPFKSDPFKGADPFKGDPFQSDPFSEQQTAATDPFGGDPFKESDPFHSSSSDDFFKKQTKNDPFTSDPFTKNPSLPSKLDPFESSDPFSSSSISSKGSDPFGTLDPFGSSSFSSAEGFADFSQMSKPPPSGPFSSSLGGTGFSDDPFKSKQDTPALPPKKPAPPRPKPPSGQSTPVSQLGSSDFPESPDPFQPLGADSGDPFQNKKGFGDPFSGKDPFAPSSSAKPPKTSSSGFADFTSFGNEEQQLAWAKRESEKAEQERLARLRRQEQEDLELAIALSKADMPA

Each target was assayed with CN[C@@H]1C[C@H]2O[C@@](C)([C@@H]1OC)n1c3ccccc3c3c4c(c5c6ccccc6n2c5c31)C(=O)NC4 [staurosporine] (assay: log2 fold change of pooled soluble protein (PISA), ligand vs vehicle (log2 ratio); higher = more thermally stabilized). Conditions: ligand concentration: 20 uM; assay format: PISA pool 52.9/55.5/58.6 C.

Target	log2 fold change of pooled soluble protein
UniProt Q61549	0.121
UniProt Q62167	-0.0547
UniProt Q61165	-0.174
UniProt Q61581	-0.0595
UniProt Q61792	-0.272
UniProt Q64373	0.0213
UniProt Q5U5V2	0.0941
UniProt Q6GQT1	0.167
UniProt Q61187	-0.00458
UniProt Q61233	0.0288
UniProt Q61247	0.127
UniProt Q61545	0.144
UniProt Q69ZP3	-0.284
UniProt Q64176	0.0322
UniProt Q64459	0.0364
UniProt Q64727	-0.071
UniProt Q69ZK6	-0.0737
UniProt Q69ZZ6	-0.0759

Target	log2 fold change of pooled soluble protein
UniProt Q61425	-0.103
UniProt Q61548	0.103
UniProt Q61335	-0.122
UniProt Q61189	0.053
UniProt Q61749	0.226
UniProt Q61176	-0.0227
UniProt Q60739	0.0257
UniProt Q63829	-0.102
UniProt Q62048	0.228
UniProt Q61387	0.204
UniProt Q61526	-0.0778
UniProt Q61183	-0.108
UniProt Q64387	-0.514
UniProt Q69ZQ1	-0.0455
UniProt Q60902	-0.0215
UniProt Q60829	-0.659
UniProt Q5SWU9	-0.0684
UniProt Q60930	-0.0263

Two entries picked at random from those above, as already listed:
Target	log2 fold change of pooled soluble protein
UniProt Q64387	-0.514
UniProt Q61548	0.103
